From paper PMC2973837
No constants are given. Whether binding was seen depends on the method and setting. In cells and extracts the contact can be indirect. Tags and fused reporters may be left off the sequences shown.

Biological target: T1, HA-SRFR1 (SUPPRESSOR OF rps4-RLD1, HA-tagged, genomic clone) (Arabidopsis thaliana) (UniProt F4JS25)
T1 sequence: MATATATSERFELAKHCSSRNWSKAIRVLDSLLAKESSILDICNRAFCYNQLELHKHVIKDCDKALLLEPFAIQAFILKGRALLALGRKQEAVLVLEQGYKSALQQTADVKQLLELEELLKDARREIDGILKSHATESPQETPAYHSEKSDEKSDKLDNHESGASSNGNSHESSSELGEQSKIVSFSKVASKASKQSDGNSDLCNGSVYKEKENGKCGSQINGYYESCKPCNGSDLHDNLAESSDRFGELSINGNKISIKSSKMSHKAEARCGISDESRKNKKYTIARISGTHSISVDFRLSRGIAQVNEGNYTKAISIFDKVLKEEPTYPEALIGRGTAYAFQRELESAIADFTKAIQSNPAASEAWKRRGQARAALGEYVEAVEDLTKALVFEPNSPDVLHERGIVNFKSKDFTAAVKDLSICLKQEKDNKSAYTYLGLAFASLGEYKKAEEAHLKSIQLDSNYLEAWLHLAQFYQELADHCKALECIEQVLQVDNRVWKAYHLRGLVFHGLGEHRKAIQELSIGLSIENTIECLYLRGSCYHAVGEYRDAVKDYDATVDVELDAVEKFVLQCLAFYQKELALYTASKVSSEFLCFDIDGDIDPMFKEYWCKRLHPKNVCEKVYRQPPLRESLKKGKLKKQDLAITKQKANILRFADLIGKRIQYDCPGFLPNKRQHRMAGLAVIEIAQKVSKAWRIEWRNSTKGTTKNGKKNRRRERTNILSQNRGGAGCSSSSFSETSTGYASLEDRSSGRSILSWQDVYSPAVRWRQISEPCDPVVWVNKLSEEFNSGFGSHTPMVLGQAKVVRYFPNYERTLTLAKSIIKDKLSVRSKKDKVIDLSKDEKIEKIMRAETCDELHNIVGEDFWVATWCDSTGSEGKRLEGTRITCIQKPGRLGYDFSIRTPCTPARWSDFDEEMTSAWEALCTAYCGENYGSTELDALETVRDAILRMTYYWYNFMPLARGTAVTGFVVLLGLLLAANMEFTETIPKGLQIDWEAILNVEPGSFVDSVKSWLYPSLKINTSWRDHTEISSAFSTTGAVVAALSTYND
Assay: co-IP; soluble fraction (100,000 x g supernatant) of HA-SRFR1 transgenic N. benthamiana leaves 48 h after agroinfiltration of the Myc-tagged proteins; 0.2% Igepal CA-630; overnight with anti-HA or anti-Myc agarose beads; immunoblot

GAPDH (enzyme)
binding: no binding
